Test results as given in PMC8139965.
These are yes or no findings as the source states them, for the method shown. In cells and extracts the contact can be indirect. Some results given as binding are weak or reduced against the parent protein; the word gives no strength.

Target: T1, EphA3 on the surface of human TNBC cell line HCC70 (human (endogenous in HCC70)) (UniProt P29320)
T1 sequence: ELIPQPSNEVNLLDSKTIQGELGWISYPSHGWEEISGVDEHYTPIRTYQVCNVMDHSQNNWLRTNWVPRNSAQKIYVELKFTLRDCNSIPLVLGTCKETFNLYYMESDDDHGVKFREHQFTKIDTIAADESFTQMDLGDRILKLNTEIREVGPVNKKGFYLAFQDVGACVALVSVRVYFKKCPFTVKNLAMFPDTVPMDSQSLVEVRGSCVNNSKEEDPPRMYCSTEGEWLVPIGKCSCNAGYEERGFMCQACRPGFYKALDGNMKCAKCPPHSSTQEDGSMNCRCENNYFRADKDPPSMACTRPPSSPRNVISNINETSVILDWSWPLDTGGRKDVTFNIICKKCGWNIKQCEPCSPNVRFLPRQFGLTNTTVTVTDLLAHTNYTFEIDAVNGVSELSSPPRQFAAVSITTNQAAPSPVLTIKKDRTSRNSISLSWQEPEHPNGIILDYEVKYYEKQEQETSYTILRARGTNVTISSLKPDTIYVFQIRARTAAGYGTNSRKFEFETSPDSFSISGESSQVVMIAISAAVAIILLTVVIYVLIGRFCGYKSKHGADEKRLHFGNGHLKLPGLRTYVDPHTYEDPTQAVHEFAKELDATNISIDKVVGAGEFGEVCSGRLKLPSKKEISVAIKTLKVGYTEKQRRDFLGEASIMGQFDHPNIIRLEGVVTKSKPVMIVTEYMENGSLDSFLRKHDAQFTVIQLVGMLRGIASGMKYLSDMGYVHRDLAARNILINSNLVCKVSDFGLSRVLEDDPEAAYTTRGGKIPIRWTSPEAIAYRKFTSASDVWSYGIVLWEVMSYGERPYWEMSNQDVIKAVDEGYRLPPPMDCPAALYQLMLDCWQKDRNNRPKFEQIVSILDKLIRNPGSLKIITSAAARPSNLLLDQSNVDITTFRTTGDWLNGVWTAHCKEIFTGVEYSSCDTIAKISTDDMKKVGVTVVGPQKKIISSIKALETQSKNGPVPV
Assay: proximity ligation; HCC70 cells treated with recombinant human IL-26 (30 ng/ml) for 1 h, fixed with 4% paraformaldehyde; goat anti-human IL-26 pAb and mouse anti-human EphA3 mAb; Duolink in situ PLA; only the binder purified

B1: recombinant human IL-26 dimer (ligand, UniProt Q9NPH9 22-171)
chain: KHKQSSFTKSCYPRGTLSQAVDALYIKAAWLKATIPEDRIKNIRLLKKKTKKQFMKNCQFQEQLLSFFMEDVFGQLQLQGCKKIRFVEDFHSLRQKLSHCISCASSAREMKSITRMKRIFYRIGNKGIYKAISELDILLSWIKKLLESSQ
binding: binds
